Laboratory results published in the supplement of paper PMC10849652.
The other results are listed elsewhere or left out.

The chains behind the UniProt entries cited, without tags or fusion partners. Where a name states a change or a piece, a line headed by the entry shows the natural chain unless it says otherwise.
UniProt Q9P2N2: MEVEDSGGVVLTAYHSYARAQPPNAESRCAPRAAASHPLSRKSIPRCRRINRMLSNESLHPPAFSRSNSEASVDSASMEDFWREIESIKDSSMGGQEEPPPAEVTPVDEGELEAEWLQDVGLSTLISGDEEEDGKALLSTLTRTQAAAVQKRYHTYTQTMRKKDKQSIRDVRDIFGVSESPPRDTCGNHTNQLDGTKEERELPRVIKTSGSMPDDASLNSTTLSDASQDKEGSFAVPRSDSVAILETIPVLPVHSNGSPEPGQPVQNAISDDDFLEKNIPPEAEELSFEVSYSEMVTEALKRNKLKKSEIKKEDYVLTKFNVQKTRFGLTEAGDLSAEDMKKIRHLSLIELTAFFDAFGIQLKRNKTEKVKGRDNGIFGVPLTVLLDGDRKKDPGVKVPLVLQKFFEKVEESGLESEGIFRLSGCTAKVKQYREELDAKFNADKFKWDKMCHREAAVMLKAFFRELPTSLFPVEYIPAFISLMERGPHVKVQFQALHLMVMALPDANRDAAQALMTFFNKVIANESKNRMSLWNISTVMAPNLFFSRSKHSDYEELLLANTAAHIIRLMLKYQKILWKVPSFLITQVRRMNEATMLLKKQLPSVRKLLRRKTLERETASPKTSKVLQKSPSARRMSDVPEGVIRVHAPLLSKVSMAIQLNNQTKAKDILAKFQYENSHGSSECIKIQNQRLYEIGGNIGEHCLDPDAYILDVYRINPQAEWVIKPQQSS
UniProt Q68CP9, whole entry, looked up: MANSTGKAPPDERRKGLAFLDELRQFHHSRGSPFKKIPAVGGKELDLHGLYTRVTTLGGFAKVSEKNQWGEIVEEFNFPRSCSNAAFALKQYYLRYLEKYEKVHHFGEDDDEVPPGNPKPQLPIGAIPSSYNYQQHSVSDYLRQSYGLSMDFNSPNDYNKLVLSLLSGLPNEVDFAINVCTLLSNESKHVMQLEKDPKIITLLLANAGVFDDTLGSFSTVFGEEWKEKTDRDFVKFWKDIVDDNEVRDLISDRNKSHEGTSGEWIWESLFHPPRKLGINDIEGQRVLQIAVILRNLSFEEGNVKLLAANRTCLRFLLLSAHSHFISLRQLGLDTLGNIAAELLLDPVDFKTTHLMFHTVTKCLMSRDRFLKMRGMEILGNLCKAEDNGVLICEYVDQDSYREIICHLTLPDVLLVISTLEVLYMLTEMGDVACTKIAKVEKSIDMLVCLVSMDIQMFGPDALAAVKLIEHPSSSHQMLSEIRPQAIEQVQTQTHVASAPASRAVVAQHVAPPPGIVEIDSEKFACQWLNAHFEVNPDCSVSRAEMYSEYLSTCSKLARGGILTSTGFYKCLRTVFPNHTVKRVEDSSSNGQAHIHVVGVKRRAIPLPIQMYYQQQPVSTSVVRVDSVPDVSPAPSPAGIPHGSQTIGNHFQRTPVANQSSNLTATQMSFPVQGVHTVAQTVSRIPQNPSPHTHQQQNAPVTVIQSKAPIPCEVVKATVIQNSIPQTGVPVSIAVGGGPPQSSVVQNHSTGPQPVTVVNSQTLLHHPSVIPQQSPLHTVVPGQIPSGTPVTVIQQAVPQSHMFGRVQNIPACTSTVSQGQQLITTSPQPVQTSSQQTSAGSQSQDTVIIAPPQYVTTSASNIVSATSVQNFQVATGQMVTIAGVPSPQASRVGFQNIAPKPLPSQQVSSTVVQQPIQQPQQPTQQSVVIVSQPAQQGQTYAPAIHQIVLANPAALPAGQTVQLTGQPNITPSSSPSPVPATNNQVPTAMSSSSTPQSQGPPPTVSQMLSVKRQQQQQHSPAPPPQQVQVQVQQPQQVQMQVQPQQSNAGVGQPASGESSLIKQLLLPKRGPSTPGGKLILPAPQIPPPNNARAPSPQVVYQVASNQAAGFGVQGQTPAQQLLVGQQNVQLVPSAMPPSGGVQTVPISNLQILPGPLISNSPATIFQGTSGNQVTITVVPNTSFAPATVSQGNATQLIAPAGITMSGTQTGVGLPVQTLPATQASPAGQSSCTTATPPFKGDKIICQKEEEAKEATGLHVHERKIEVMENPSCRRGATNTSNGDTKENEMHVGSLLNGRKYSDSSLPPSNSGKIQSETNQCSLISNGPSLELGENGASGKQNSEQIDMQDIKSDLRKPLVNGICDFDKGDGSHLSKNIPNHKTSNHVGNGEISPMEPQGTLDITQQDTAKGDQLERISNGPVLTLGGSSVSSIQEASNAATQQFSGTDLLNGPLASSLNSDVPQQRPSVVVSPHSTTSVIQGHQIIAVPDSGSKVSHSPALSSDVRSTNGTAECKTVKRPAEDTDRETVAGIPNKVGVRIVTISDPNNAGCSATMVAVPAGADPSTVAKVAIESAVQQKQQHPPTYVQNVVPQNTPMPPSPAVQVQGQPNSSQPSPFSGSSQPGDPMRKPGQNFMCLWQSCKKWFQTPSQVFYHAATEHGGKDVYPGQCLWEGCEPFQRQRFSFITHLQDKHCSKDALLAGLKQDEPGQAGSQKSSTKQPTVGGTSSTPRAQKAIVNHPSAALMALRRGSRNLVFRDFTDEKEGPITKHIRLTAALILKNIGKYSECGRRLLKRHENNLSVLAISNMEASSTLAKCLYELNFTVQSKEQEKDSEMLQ
UniProt Q96B67: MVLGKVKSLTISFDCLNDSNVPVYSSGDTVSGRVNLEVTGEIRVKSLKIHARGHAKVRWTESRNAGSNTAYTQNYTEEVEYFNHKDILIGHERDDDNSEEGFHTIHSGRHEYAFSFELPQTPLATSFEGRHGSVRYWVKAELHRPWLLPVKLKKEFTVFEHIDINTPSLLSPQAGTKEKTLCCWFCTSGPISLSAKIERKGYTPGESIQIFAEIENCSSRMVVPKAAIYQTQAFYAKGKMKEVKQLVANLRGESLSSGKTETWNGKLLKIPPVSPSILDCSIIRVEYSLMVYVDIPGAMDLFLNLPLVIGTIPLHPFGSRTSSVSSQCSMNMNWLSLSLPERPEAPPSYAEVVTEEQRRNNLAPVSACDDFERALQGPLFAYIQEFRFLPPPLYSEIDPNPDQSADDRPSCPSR
UniProt Q8TER5, whole entry, looked up: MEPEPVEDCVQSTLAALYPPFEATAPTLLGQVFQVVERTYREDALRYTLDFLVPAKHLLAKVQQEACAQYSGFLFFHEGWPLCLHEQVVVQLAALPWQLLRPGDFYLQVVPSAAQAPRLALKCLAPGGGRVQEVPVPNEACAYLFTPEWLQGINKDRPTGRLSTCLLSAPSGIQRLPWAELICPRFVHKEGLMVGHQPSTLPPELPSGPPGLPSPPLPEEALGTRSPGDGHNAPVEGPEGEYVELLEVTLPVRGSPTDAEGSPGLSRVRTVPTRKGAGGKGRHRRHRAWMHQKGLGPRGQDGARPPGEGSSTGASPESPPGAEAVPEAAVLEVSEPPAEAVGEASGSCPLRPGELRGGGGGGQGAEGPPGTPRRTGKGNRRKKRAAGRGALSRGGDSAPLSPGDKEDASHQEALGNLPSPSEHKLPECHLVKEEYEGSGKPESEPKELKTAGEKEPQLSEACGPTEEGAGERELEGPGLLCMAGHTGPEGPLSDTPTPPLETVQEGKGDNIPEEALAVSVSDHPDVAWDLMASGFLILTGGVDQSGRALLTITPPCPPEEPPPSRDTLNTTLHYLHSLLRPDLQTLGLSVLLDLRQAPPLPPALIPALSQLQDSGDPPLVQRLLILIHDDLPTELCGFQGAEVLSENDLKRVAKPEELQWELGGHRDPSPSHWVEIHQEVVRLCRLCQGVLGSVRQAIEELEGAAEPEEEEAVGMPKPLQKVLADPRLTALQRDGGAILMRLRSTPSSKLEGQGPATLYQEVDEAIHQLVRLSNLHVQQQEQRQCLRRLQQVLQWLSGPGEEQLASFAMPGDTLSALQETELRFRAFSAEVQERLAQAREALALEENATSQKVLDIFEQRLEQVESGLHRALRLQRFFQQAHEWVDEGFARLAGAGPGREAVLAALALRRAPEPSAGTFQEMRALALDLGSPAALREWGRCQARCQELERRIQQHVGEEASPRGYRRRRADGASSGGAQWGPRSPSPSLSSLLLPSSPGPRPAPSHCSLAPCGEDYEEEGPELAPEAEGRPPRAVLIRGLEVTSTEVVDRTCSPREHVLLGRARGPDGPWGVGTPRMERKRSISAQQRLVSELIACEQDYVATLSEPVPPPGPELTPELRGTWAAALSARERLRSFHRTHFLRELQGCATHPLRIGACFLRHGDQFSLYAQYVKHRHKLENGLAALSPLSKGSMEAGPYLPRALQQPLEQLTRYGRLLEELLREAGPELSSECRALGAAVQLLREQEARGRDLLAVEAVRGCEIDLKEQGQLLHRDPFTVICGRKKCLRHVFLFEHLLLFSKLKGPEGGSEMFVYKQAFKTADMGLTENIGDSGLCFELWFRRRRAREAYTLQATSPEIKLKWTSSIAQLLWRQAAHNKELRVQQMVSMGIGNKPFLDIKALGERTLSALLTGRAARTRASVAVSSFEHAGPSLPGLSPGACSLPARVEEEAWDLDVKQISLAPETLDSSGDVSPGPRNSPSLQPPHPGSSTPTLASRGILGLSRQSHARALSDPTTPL
UniProt P05090: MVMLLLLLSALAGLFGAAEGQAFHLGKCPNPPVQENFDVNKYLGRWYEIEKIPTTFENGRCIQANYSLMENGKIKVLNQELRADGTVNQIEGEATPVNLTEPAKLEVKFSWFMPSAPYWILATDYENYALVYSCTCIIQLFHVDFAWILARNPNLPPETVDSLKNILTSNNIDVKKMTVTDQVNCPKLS
UniProt Q8N2F6: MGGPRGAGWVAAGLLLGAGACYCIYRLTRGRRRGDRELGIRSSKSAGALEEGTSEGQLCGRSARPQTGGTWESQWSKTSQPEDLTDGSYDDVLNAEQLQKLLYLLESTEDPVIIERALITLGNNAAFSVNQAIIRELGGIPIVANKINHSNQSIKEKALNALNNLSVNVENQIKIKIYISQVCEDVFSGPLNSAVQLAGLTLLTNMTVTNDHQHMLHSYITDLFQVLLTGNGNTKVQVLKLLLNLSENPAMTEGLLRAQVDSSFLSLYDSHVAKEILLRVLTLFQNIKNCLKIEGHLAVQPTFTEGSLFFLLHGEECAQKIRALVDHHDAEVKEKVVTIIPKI
UniProt Q8WWN8: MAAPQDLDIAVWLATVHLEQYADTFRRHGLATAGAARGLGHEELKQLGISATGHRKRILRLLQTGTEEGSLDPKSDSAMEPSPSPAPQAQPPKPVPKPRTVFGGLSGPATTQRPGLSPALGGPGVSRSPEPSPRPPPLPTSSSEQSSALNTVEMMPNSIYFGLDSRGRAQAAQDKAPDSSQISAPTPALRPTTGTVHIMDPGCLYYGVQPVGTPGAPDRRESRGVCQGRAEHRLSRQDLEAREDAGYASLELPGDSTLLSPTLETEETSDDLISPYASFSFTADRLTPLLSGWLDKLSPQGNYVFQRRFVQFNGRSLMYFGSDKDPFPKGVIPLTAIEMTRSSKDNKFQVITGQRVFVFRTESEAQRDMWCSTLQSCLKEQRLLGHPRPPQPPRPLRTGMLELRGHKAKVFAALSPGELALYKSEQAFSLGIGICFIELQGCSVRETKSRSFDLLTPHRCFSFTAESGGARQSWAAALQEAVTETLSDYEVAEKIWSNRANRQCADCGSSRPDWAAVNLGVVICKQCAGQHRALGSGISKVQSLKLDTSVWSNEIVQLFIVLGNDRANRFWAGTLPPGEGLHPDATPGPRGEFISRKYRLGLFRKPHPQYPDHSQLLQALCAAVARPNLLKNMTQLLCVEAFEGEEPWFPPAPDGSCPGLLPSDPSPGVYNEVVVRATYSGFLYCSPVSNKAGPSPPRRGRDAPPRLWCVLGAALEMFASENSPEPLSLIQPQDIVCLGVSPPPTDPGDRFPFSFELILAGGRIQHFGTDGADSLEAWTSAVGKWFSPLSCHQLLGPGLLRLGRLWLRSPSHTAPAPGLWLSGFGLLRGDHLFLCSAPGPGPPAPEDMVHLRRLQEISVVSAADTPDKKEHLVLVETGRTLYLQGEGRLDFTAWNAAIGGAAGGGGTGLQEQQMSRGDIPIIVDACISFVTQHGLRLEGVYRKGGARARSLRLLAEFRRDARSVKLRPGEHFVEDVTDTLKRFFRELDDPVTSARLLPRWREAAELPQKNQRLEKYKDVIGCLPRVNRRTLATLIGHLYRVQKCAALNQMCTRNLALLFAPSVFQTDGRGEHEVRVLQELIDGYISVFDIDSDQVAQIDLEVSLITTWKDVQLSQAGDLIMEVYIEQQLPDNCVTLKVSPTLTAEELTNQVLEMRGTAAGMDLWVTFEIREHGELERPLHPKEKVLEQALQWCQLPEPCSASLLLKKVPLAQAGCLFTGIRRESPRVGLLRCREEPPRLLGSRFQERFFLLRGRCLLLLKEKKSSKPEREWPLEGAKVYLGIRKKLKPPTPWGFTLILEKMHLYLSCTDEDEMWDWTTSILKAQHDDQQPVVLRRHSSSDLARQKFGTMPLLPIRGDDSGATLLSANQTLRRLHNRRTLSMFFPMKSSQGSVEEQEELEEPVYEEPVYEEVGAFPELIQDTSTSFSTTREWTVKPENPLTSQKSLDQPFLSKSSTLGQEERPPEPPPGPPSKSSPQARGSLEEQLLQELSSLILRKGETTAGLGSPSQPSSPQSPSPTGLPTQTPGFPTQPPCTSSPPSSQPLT

Experiments:
Assay in all cases: log2 fold change, soluble protein after heating vs DMSO (PISA); higher = thermal stabilisation; K562 lysate, 10 uM; active = over 0.2 and 3.5 SD of the protein, either way, in both replicates (recomputed)
[1] = compound: O=C(CCCCCCC(=O)Nc1ccccc1)NO [vorinostat]
Outline: (§1)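 Following dounce homogenisation of K562 pellets in PBS pH 7.4 with 1 mM MgCl2, crude extract at 1 mg/mL protein was incubated for 30 min with 10 μM compound. Aliquots were then heated for 3 min over 48°C-58°C and pooled, NP-40 was added to 0.5% at 4°C, and soluble protein was recovered as the supernatant at 21,000xg for 90 min. Channel-sum-equalised TMTpro 16plex LC-MS/MS quantified this protein. Each value, from duplicates, is a log-two fold change in thermal stability relative to solvent controls.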

[2] = compound: O=C(O)c1ccc2c(c1)nc(Nc1cccc(Cl)c1)c1ccncc12 [silmitasertib]
Outline: as §1

[3] = compound: O=C1NC(=O)C(c2cnc3ccccn23)=C1c1cn2c3c(cc(F)cc13)CN(C(=O)N1CCCCC1)CC2
Outline: as §1

[4] = compound: c1cn2cc(-c3ccc4cn[nH]c4c3)nc(Nc3ccc(N4CCOCC4)cc3)c2n1 [entospletinib]
Outline: as §1

[5] = compound: NCC(=O)Nc1ccc(-n2nc(C(F)(F)F)cc2-c2ccc3c(ccc4ccccc43)c2)cc1
Outline: as §1

| Target | log2 fold change [1] | log2 fold change [2] | log2 fold change [3] | log2 fold change [4] | log2 fold change [5] |
| --- | --- | --- | --- | --- | --- |
| ARHGAP22 isoform 2 (UniProt Q7Z5H3) | inactive: 0.146 | inactive: -0.108 | inactive: 0.21 | inactive: 0.019 |  |
| ARHGAP28 (UniProt Q9P2N2) | inactive: 0.048 | inactive: -0.034 |  |  |  |
| ARID2 (UniProt Q68CP9) |  |  | inactive: 0.025 | inactive: -0.041 | inactive: 0.07 |
| ARV1 (UniProt Q9H2C2) |  |  | inactive: -0.014 | inactive: -0.051 | inactive: -0.096 |
| ASAP3 (UniProt Q8TDY4) | inactive: -0.219 | inactive: 0.023 | inactive: -0.014 | inactive: 0.029 | inactive: 0.009 |
| ARL4A (UniProt P40617) |  |  |  | inactive: -0.042 |  |
| ARFIP1 isoform 2 (UniProt P53367) |  |  |  | inactive: -0.028 | inactive: -0.086 |
| ARRDC3 (UniProt Q96B67) | inactive: 0.39 | inactive: -0.003 |  |  |  |
| APBA1 (UniProt Q02410) | inactive: -0.227 | inactive: 0.045 | inactive: -0.076 | inactive: -0.072 |  |
| ARHGEF40 (UniProt Q8TER5) | inactive: -0.096 | inactive: -0.009 |  |  |  |
| ARF1 (UniProt P84077) | inactive: 0.107 | inactive: -0.705 | inactive: -0.023 |  |  |
| APOD (UniProt P05090) |  |  | inactive: 0.368 | inactive: 0.033 |  |
| ARMC10 isoform 2 (UniProt Q8N2F6) |  |  |  | inactive: -0.254 |  |
| ARAP3 (UniProt Q8WWN8) | inactive: -0.336 | inactive: 0.062 |  | inactive: 0.09 |  |
